Test results taken from paper PMC7819943, “Rice protein-binding microarrays: a tool to detect cis-acting elements near promoter regions in rice”.
The list shows a part of the results.

By UniProt entry, the sequences of proteins in these tests, tags left out.
UniProt Q0JBA9, entry or part of it: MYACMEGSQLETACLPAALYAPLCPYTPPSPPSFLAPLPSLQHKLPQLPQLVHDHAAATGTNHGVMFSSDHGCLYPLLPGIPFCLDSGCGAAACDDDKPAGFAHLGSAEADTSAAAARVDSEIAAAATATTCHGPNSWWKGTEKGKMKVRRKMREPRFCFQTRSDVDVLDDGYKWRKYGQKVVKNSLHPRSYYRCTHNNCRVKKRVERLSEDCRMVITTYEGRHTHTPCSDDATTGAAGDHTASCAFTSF

target: OsWRKY34 (Oryza sativa, UniProt Q0JBA9 1-250); test: protein-binding microarray (RPBM); PBS, 2% BSA, 51.3 ng/ul salmon testes DNA, 50 uM zinc acetate, 200 nM TF, 25 C, 1 h; high values mean tight binding; conditions: protein: recombinant; tags: N-terminal polyhistidine and DsRed monomer fusion (pET32a); label: CyDye5-dUTP incorporated in the synthesized complementary strand; 3' TTTTT single-stranded linker to array surface; dsDNA, one strand shown
In short: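 Transcription factors, each fused N-terminally to a polyhistidine tag and DsRed, were expressed in E. coli BL21-CodonPlus and purified on Ni–NTA. A custom Agilent array was made double-stranded by primer extension with Cy5-dUTP and blocked with 2% BSA. It was incubated with 200 nM protein in PBS, 2% BSA, salmon testes DNA and 50 µM zinc acetate at 25 °C for 1 h, then washed. The binding signal is per-feature fluorescence intensity (arbitrary units) read on an Axon 4000B scanner.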

Sequence | binding signal
GTCGATCTCCCCGTCCCGGTGGACTATCGCGCGCGTTTTTCGGAGTCACCTAGTGCAG | 8620 fluorescence intensity (a.u.)
TAGTTTTGTTTAATTCCTGTCTCGGGTTTGGTTGGTTGCTCGGAGTCACCTAGTGCAG | 19100 fluorescence intensity (a.u.)
TCCGACTCTCTTCGTCTCACTGCTCCGTGGGCCCACCCAACGGAGTCACCTAGTGCAG | 8200 fluorescence intensity (a.u.)
GGCTATCCCATCGTCGTTTGCTTTGATTTGATGCTTGTTTCGGAGTCACCTAGTGCAG | 11400 fluorescence intensity (a.u.)
GCACCGAACTCCGGCGAGCCCACGTGAACACCACCACTCTCGGAGTCACCTAGTGCAG | 9990 fluorescence intensity (a.u.)
GTCCTCCTCCTGTGCCGCCGCGCTCTCTCTCTCTCTCGCTCGGAGTCACCTAGTGCAG | 8520 fluorescence intensity (a.u.)
GTTGTATCAATATGGCCCTGGTTAGATTCTAACTTTTTTTCGGAGTCACCTAGTGCAG | 9360 fluorescence intensity (a.u.)
GTTTGTTCGAGTTCAACGATTTGCCATCGACATTATCTCTCGGAGTCACCTAGTGCAG | 10100 fluorescence intensity (a.u.)
GTTTAATATTTATAATTCGTGTCCCGATGTGACACGGCTTCGGAGTCACCTAGTGCAG | 9030 fluorescence intensity (a.u.)
ATTTTATCACCCTGCTTAGAGTTTCGCCCGGAGCCATGAACGGAGTCACCTAGTGCAG | 10700 fluorescence intensity (a.u.)
GGTTTTTTGGCTTTGTACGGATCGATCTTGACTTGACTCGCGGAGTCACCTAGTGCAG | 9660 fluorescence intensity (a.u.)
GGGGAGTGAGGTGAAAGAAGTTGTCGATTGACTTGTGGGGCGGAGTCACCTAGTGCAG | 8210 fluorescence intensity (a.u.)
CCCCGTCCTCTGCTTCTCTCTCGTGTGCTCTGCTTCTTTCCGGAGTCACCTAGTGCAG | 15400 fluorescence intensity (a.u.)
CGCATATAAACGTAATGCAACCACACCCACTACACTTATTCGGAGTCACCTAGTGCAG | 8550 fluorescence intensity (a.u.)
TTTTCTAGCTTTTTTTAAAATAAATGGTGGTGTTTTTCTCCGGAGTCACCTAGTGCAG | 8420 fluorescence intensity (a.u.)
TTGAACTGTGCTTGTGTTTGCTCGATATTCGATATGTTTACGGAGTCACCTAGTGCAG | 9310 fluorescence intensity (a.u.)
ACCCATCAACGGCACTAGATTCCTTGTCGCGCTGCCATCGCGGAGTCACCTAGTGCAG | 9580 fluorescence intensity (a.u.)
ATCTCAATGAGTTGGTCGTTTGCTGCTTCTCTATAGTGAACGGAGTCACCTAGTGCAG | 9140 fluorescence intensity (a.u.)
AGCTTTTTATCACTTGGTCAGTGGTTTTTTCTTTTCCATTCGGAGTCACCTAGTGCAG | 12400 fluorescence intensity (a.u.)
CAAACGTTGGAAAAAAGTCAACGGCGTCATATATTTTAATCGGAGTCACCTAGTGCAG | 15800 fluorescence intensity (a.u.)
CAACTCCCATACGTAACGACATTTTAAATTAATTTGCCATCGGAGTCACCTAGTGCAG | 8830 fluorescence intensity (a.u.)
CGCTGTATGCTCTTGCTCTTAATATCTTGCGTGCTGGCTTCGGAGTCACCTAGTGCAG | 9860 fluorescence intensity (a.u.)
TCTTCACGCGCATACTTTTCAAACTGCTAAACGGTGCGTTCGGAGTCACCTAGTGCAG | 8080 fluorescence intensity (a.u.)
TGGTTCTTATCCATTCCATCAGTTGACTGTCAATCTTTCACGGAGTCACCTAGTGCAG | 9460 fluorescence intensity (a.u.)
GCCAGCCCGTCACACCGAGTCCAACGCCTTTCAACGCGCGCGGAGTCACCTAGTGCAG | 10800 fluorescence intensity (a.u.)
ACTTTCCGTTATTCTCATTTCAACCCTCGCATTTTTTACACGGAGTCACCTAGTGCAG | 11200 fluorescence intensity (a.u.)
TATGTTTCTGTGGTAAGGCCCATGAAGTTTTCGGTGAGAGCGGAGTCACCTAGTGCAG | 8660 fluorescence intensity (a.u.)

Sequence | binding signal
CGTTTTGTGCTTCTACCTGTTAATCTATCTGATGGTTTTCCGGAGTCACCTAGTGCAG | 12700 fluorescence intensity (a.u.)
GCAGTTTCAGTGTGTGTTTGGTTGCAAGTTGTTGCATCTGCGGAGTCACCTAGTGCAG | 8410 fluorescence intensity (a.u.)
GGATATTGAGATGCCTAGTTACCTGGGACTGCTTACACTACGGAGTCACCTAGTGCAG | 8820 fluorescence intensity (a.u.)
GACCTACATCCAATCCAACACCACACCACACCATTTTTTTCGGAGTCACCTAGTGCAG | 13600 fluorescence intensity (a.u.)
GCCTACGACCCGCGCTCCGACCCTGACCCGCCCTGCCTCGCGGAGTCACCTAGTGCAG | 8750 fluorescence intensity (a.u.)
GACGGTCGTAAAATTCGTGGTGTTTCTGTTCATCTTAGCTCGGAGTCACCTAGTGCAG | 8110 fluorescence intensity (a.u.)
TCATCTGCACGAGGGCGTGGTTGGTTCTTGCTTGTGTGAGCGGAGTCACCTAGTGCAG | 9020 fluorescence intensity (a.u.)
CCACCGCCGCCGCCGCCGCCGCGCCATCGCCGCCTCCACCCGGAGTCACCTAGTGCAG | 9910 fluorescence intensity (a.u.)
ATTAATATCTACCCTATTTTCATAACGTCTCGTATCTTATCGGAGTCACCTAGTGCAG | 8200 fluorescence intensity (a.u.)
CCACCGCCGCTCGCGGGAGAGACTCTGGTTTTTTTTGGGGCGGAGTCACCTAGTGCAG | 8840 fluorescence intensity (a.u.)
CCAGATCGCTCACAGATCCTCCCAACTCGCTCACCTTCTTCGGAGTCACCTAGTGCAG | 8800 fluorescence intensity (a.u.)
CCCGACACCGCCATGGCCGCCGCCGTCCGCCGCCTCCTGCCGGAGTCACCTAGTGCAG | 12600 fluorescence intensity (a.u.)
CCCAAATATTGTACTTGTGTGATTGTAATGAATATATAGCCGGAGTCACCTAGTGCAG | 8430 fluorescence intensity (a.u.)
GCCGATGTCTCCTCTTGCTACCAAGCTAGACCCACACGTTCGGAGTCACCTAGTGCAG | 8270 fluorescence intensity (a.u.)
GCATTACTAGGGTATTGACATTGTCAGTTTTCTCTAAACCCGGAGTCACCTAGTGCAG | 8150 fluorescence intensity (a.u.)
GCTCTTGGTCTCGAGTCTCGACAGCGACCCGGTTGGTCAACGGAGTCACCTAGTGCAG | 9410 fluorescence intensity (a.u.)
TCTCACTTTTACTCGCATGTTTCGCTATGCACATGTTTTTCGGAGTCACCTAGTGCAG | 8570 fluorescence intensity (a.u.)
AAAAAAATTATGGATGGGGTTATTAGTAACAGTCATTTTGCGGAGTCACCTAGTGCAG | 8040 fluorescence intensity (a.u.)
GAGTTTTGTAAGTAGAGTGCTCTCTCACCTTTTCTTCACTCGGAGTCACCTAGTGCAG | 8480 fluorescence intensity (a.u.)
TCCGATGTGACACGCTAAAATTTTTCTTCTCGCGGGCCTTCGGAGTCACCTAGTGCAG | 9250 fluorescence intensity (a.u.)
CGTCACGTTTTCTATCAACTCCTTCCATACAACACCGATGCGGAGTCACCTAGTGCAG | 8420 fluorescence intensity (a.u.)
TTCGTTAAATTATTTTTCTTTTTCGTTTTTTTTTTTTGTTCGGAGTCACCTAGTGCAG | 8930 fluorescence intensity (a.u.)
ACCGTCCTCGCGACCTCGCCTCTTATCATCCCGCGAATAACGGAGTCACCTAGTGCAG | 10900 fluorescence intensity (a.u.)
TGTTGTGGATGTGGATAAGACCCCAGTTATGCTAAACTGGCGGAGTCACCTAGTGCAG | 8340 fluorescence intensity (a.u.)
ACTTACTTACTTCCTCGCTCTCGCTGTCCCTCGCTCACTCCGGAGTCACCTAGTGCAG | 12900 fluorescence intensity (a.u.)
CCCGCGACCAGAAACCGTACCCGCCTTCTCCCGCACCGGGCGGAGTCACCTAGTGCAG | 8240 fluorescence intensity (a.u.)
CCGCCTGCGCCGATCCCCATCCATCCATCCACCCAGCGACCGGAGTCACCTAGTGCAG | 9470 fluorescence intensity (a.u.)

A different layout for some results above:
Sequence	binding signal
GTTTAATATTTATAATTCGTGTCCCGATGTGACACGGCTTCGGAGTCACCTAGTGCAG	9030 fluorescence intensity (a.u.)
CCACCGCCGCCGCCGCCGCCGCGCCATCGCCGCCTCCACCCGGAGTCACCTAGTGCAG	9910 fluorescence intensity (a.u.)
TCTCACTTTTACTCGCATGTTTCGCTATGCACATGTTTTTCGGAGTCACCTAGTGCAG	8570 fluorescence intensity (a.u.)
